Source: PubChem BioAssay AID2685 (National Center for Advancing Translational Sciences (NCATS), 2010)
Out of some 320,000 compounds screened, about 2,100 (0.66%) were called active. Inconclusive results, whose numbers are uncertain, are shown with a selection of clear calls. Calls come from the whole dose curve; as a rule, active = well fitted inhibition curve with a large enough effect in the signal ratio, with a control signal flat (not every such curve was filed as active); inconclusive = small, poorly fitted or top-dose-only effect, or effect the other way, or a change in a side signal; inactive = flat fitted curve, though single readings scatter; the % refers to the signal ratio. A potency beside an inconclusive call is a rough fit, not a confirmed value.

Assay: qHTS Assay for Lipid Storage Modulators in Drosophila S3 Cells
Details: BODIPY lipid droplet fluorescence, 18-24 h, cells fed with added oleic acid; lipid storage change, negative = inhibition: at 46.1 µM (top of the series) unless noted
Summary of the method: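 Drosophila S3 cells loaded with oleic acid (400 uM, as added) and compounds at several concentrations; lipid droplets imaged by 488-nm laser-scanning cytometry, 500–530 nm intensity and object ratio to cell channel. Percent activity normalized to 20 uM Triacsin C.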
% is set by controls: 0 for no effect and ±100 for the full control effect; potency is the fitted concentration of half-maximal effect.

SMILES	lipid storage change, negative = inhibition	Potency	outcome
COc1ccc(CNc2nc3nc(C)c(Cl)c(=O)n3[nH]2)cc1OC	inconclusive: -29.7%	–	–
Cc1sc2nc(CN(C(=O)NC3CCCCC3)C3CCCC3)[nH]c(=O)c2c1C	inconclusive: 7.85%	–	–
Cc1cc(C)n(CC(C)NCc2cn[nH]c2-c2cccc3ccccc23)n1 (configuration not stated)	inconclusive: 29.3%	–	–
O=C(COc1ccc(Cl)cc1)N1CCCCCCC1	inconclusive: 34.4%	–	–
Cc1ccc(C)c(NC(=O)CSc2ccc(-c3cccs3)nn2)c1	–	inconclusive: 29100 nM [falling, single point]	–
CC(=O)Nc1ccc(N/C(N)=N/c2nc(C)cc(C)n2)cc1	–	inconclusive: 29100 nM [activator, single point]	–
Cc1cnn(-c2nc(-c3cccs3)cc(C(F)(F)F)n2)c1	–	inconclusive: 231 nM [falling, partial curve, poor fit]	–
O=C(CCCCn1c(=O)c2ccccc2n(CC(=O)Nc2cccc(F)c2)c1=O)NCc1ccco1	inconclusive: -2.47%	–	–
Cc1ccc(NC(=O)c2ccc(S(=O)(=O)NCC3CCCO3)cc2)cc1 (configuration not stated)	inconclusive: -40.7%	–	–
CCOc1ccc(NC(=O)CS(=O)CC(=O)Nc2cccnc2)cc1 (configuration not stated)	–	inconclusive: 5170 nM [falling, single point]	–
CCOC(=O)N1CCN(C(=O)CSc2nnc(CNC(=O)c3c(F)cccc3Cl)o2)CC1	–	inconclusive: 3260 nM [falling, partial curve]	–
Cc1cc(C)c(S(=O)(=O)N2CCN(C(=O)c3cc(=O)[nH]c4ccccc34)CC2)c(C)c1	–	inconclusive: 6510 nM [activator, single point]	–
CCc1nn(CC(=O)NCCCN2CCN(C)CC2)c(=O)c2cc3sccc3n12	–	inconclusive: 29100 nM [activator, single point]	–
CN(C)S(=O)(=O)c1ccc(N2CCCC2)c(C(=O)Nc2ccccc2OC(F)F)c1	inactive: 9.18%	–	–
CCN(C(=O)COC(=O)CSc1ccc(F)cc1)c1c(N)n(Cc2ccccc2)c(=O)[nH]c1=O	inconclusive: -47.8%	–	–
Cc1cc(NS(=O)(=O)c2ccc(NC(=O)CCCOc3ccccc3C)cc2)no1	–	inconclusive: 103 nM [falling, single point]	–
CCC(=O)OCCn1c(=O)c2ccccc2c2ccccc2c1=O	–	inconclusive: 2590 nM [falling, full curve, poor fit]	–
Cn1nc(C(=O)NCc2ccccc2CN2CCCC2)c2ccccc2c1=O	inconclusive	–	–
COCCNC(=O)c1cc(-c2ccccc2)n(Cc2cc(C)no2)n1	inconclusive: 30.5%	–	–

Part of the list above in order of heavy-atom count, smallest number first.
SMILES	lipid storage change, negative = inhibition	Potency	outcome
CC(=O)Nc1ccc(N/C(N)=N/c2nc(C)cc(C)n2)cc1	–	inconclusive: 29100 nM [activator, single point]	–
COCCNC(=O)c1cc(-c2ccccc2)n(Cc2cc(C)no2)n1	inconclusive: 30.5%	–	–
Cc1cc(NS(=O)(=O)c2ccc(NC(=O)CCCOc3ccccc3C)cc2)no1	–	inconclusive: 103 nM [falling, single point]	–

Additional entries.

SMILES	lipid storage change, negative = inhibition	Potency	outcome
S=C(Nc1ccc2nsnc2c1)N1CCCCC1	–	inconclusive: 5.2 nM [falling, full curve, poor fit]	–
CC(=O)c1cc2c(cc1NS(=O)(=O)c1ccc3c(c1)OCCO3)OCO2	–	inconclusive: 2310 nM [activator, partial curve]	–
COc1ccc(NC(=O)CCC(=O)c2ccc(Cl)cc2)cn1	–	inconclusive: 103 nM [activator, full curve, poor fit]	–
C=CCOC(=O)C1=C(C)NC(SCC(=O)OCC)=C(C#N)C1c1ccc(C)cc1 (configuration not stated)	inconclusive: -23.7%	–	–
C=CCN1C(=O)C2(C(C(=O)c3ccc(C)o3)=C(O)C(=O)N2CCCN2CCOCC2)c2ccccc21 (configuration not stated)	inconclusive: 29.7%	–	–
Cc1cccc(NC(=O)c2cc(S(=O)(=O)N3CCOCC3)cn2C)c1C	inconclusive: 21%	–	–
CCOc1ccc(S(=O)(=O)N(CC)CC(=O)N2CCOCC2)cc1C	inconclusive: 55.1%	–	–
CCOc1ccc(S(=O)(=O)N2CCOCC2)cc1NC(=O)Cc1c(F)cccc1Cl	inconclusive: 35.5%	–	–
CN1C(=O)C(CC(=O)Nc2ccc3c(c2)Cc2ccccc2-3)N(C)C1=O (configuration not stated)	inconclusive: 47.1%	–	–
COc1ccccc1N(C1=NCCCS1)S(=O)(=O)c1ccc(C(C)(C)C)cc1	inconclusive: -23.3%	–	–
COC(=O)CCNC(=O)Cc1ccc(S(=O)(=O)N2CCCCC2)s1	inconclusive	–	–
O=C(Nc1ccc(Cl)cc1)Nn1cnc2ccccc2c1=O	–	inconclusive: 1160 nM [activator, single point]	–
COc1cccc(N2CCN(C(=O)c3ccc4nc[nH]c4c3)CC2)c1	–	inconclusive: 29100 nM [activator, single point]	–
CSCCC(NS(=O)(=O)c1ccccc1)C(=O)OCc1nc2ccsc2c(=O)[nH]1 (configuration not stated)	inconclusive	–	–
CN(Cc1c(C(=O)N/N=C/c2ccc(O)cc2)nnn1-c1nonc1N)c1ccccc1	–	–	inactive [at 46.1 µM]
Cn1c(SCC(=O)NC2CCCC2)nnc1-c1ccncc1	inconclusive: -19%	–	–
Cc1ccc2c(=O)c(C(=O)NCc3cccs3)c[nH]c2c1	inconclusive: 3.2%	–	–
COC(=O)CC1=NN(c2ccccc2)C(=O)/C1=C\c1ccc(OC)cc1	inconclusive: 44.4%	–	–
